# Laboratory results from US20250154171A1, “RAS INHIBITORS” (Revolution Medicines, Inc., priority 2023, published 2025).
# By UniProt entry, the sequences of proteins in these tests, tags left out. Where a name states a change or a piece, a line headed by the entry shows the natural chain unless it says otherwise. Residues count along the entry.
# UniProt P01116, 1-188 isoform P01116-2 G12V: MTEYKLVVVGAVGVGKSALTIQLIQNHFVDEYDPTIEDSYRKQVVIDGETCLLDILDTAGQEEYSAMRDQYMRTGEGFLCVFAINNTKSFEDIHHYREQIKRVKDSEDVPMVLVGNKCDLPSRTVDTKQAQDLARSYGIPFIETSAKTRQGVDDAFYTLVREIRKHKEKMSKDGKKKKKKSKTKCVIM
# UniProt P62937, whole entry: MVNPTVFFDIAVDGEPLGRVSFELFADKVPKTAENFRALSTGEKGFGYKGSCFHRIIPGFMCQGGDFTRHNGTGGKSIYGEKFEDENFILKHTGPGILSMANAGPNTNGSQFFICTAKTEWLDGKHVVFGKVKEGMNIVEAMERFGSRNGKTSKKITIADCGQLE
# Some entries share one result that the patent states for a list of compounds.
# Tests used:
# [1] = tested on: Capan-1 (K-Ras G12V); assay: CellTiter-Glo cell viability assay, Capan-1; assay type: cell-based, human; settings: 5-day treatment, Capan-1 versus A375
# [2] = molecular target: K-RasG12V (Homo sapiens, UniProt P01116+P62937, G12V); assay: Disruption of BRAF RBD interaction with K-Ras (TR-FRET / MOA assay), K-RasG12V; assay type: biochemical; settings: TR-FRET with cyclophilin A and GST-BRAF RBD, read-out: IC50 with respect to K-RasG12V (disruption of BRAF RBD interaction)
IC50 [2] [µM],SMILES,decrease in cell viability with respect to KRAS G12V (Capan-1) versus wild-type KRAS (A375) [1]
< 1,CO[C@@H](C)c1ncc(N2CCN(C3CC3)CC2)cc1-c1c2c3cc(ccc3n1CCOC1CCOCC1)-c1nc(co1)[C@@H](N1CCOCC1)[C@H](NC(=O)[C@@H]1[C@@H](C)[C@H]1c1ccccn1)C(=O)N1CCC[C@H](N1)C(=O)OCC(C)(C)C2 (racemic) [Example A731],greater decrease in cell viability
< 1,CO[C@@H](C)c1ncc(N2CCN(C3CC3)CC2)cc1-c1c2c3cc(ccc3n1CCOC1CCOCC1)-c1nc(co1)[C@@H](N1CCOCC1)[C@H](NC(=O)[C@@H]1[C@@H](C)[C@H]1c1cocn1)C(=O)N1CCC[C@H](N1)C(=O)OCC(C)(C)C2 (racemic) [Example A733],greater decrease in cell viability
< 1,CCO[C@@H]1c2nc(cs2)-c2ccc3c(c2)c(c(-c2cc(N4CCN(C5CC5)CC4)cnc2[C@H](C)OC)n3CCO[C@@H]2CCOC[C@@H]2F)CC(C)(C)COC(=O)[C@@H]2CCCN(N2)C(=O)[C@H]1NC(=O)[C@H]1[C@H](C)[C@@H]1C (racemic) [Example A736],greater decrease in cell viability
< 1,CCO[C@@H]1c2nc(cs2)-c2ccc3c(c2)c(c(-c2cc(N4CCN(C5CC5)CC4)cnc2[C@H](C)OC)n3CCO[C@@H]2CCOC[C@H]2F)CC(C)(C)COC(=O)[C@@H]2CCCN(N2)C(=O)[C@H]1NC(=O)[C@H]1[C@H](C)[C@@H]1C (racemic) [Example A737],greater decrease in cell viability
< 1,CCO[C@@H]1c2nc(cs2)-c2ccc3c(c2)c(c(-c2cc(N4CCN(C5CC5)CC4)cnc2[C@H](C)OC)n3CCO[C@H]2CCOC[C@H]2F)CC(C)(C)COC(=O)[C@@H]2CCCN(N2)C(=O)[C@H]1NC(=O)[C@H]1[C@H](C)[C@@H]1C (racemic) [Example A738],greater decrease in cell viability
< 1,CO[C@@H](C)c1ncc(N2CCN(C3CC3)CC2)cc1-c1c2c3cc(ccc3n1CCOC1CCOCC1)-c1nc(co1)[C@@H](N1CCOCC1)[C@H](NC(=O)[C@H]1[C@H](C)[C@@H]1C(C)C)C(=O)N1CCC[C@H](N1)C(=O)OCC(C)(C)C2 (racemic) [Example A739],greater decrease in cell viability
< 1,CO[C@@H](C)c1ncccc1-c1c2c3cc(ccc3n1CCOC1CCOCC1)-c1csc(n1)[C@@H](OCC(C)C)[C@H](NC(=O)[C@H]1[C@H](C)[C@@H]1C)C(=O)N1CCC[C@H](N1)C(=O)OCC(C)(C)C2 (racemic) [Example A740],greater decrease in cell viability
< 1,CO[C@@H](C)c1ncc(N2CCN(C3CC3)CC2)cc1-c1c2c3cc(ccc3n1CCOC1CCOCC1)-c1csc(n1)[C@@H](N1CCOCC1)[C@H](NC(=O)[C@@H]1[C@@H](C)[C@H]1c1ccccn1)C(=O)N1CCC[C@H](N1)C(=O)OCC(C)(C)C2 (racemic) [Example A742],greater decrease in cell viability
< 1,CO[C@@H](C)c1ncccc1-c1c2c3cc(ccc3n1CCOC1CCOCC1)-c1csc(n1)[C@@H](N1CCOCC1)[C@H](NC(=O)[C@@H]1[C@@H](C)[C@H]1c1cocn1)C(=O)N1CCC[C@H](N1)C(=O)OCC(C)(C)C2 (racemic) [Example A744],greater decrease in cell viability

# Continued, molecule first:
SMILES,IC50 [2] [µM],decrease in cell viability with respect to KRAS G12V (Capan-1) versus wild-type KRAS (A375) [1]
CCO[C@@H]1c2nc(cs2)-c2ccc3c(c2)c(c(-c2cccnc2[C@H](C)OC)n3CC)CC(C)(C)COC(=O)[C@@H]2CCCN(N2)C(=O)[C@H]1NC(=O)C12CC(C1)C(C)O2 (mixture of isomers) [Example A727],< 1,greater decrease in cell viability
CCO[C@@H]1c2nc(cs2)-c2ccc3c(c2)c(c(-c2cc(N4CCN(C5CC5)CC4)cnc2[C@H](C)OC)n3CCOC2CCOCC2)CC(C)(C)COC(=O)[C@H]2NN(C(=O)[C@H]1NC(=O)[C@@H]1[C@@H](C)[C@H]1c1cocn1)C1CC2C1 (racemic) [Example A728],< 1,greater decrease in cell viability
CO[C@@H](C)c1ncc(N2CCN(C3CC3)CC2)cc1-c1c2c3cc(ccc3n1CCOC1CCOCC1)-c1csc(n1)[C@@H](N1CCCC1)[C@H](NC(=O)[C@@H]1[C@@H](C)[C@H]1c1ccccn1)C(=O)N1CCC[C@H](N1)C(=O)OCC(C)(C)C2 (racemic) [Example A729],< 1,greater decrease in cell viability
CO[C@@H](C)c1ncc(N2CCN(C3CC3)CC2)cc1-c1c2c3cc(ccc3n1CCOC1CCOCC1)-c1csc(n1)[C@@H](N1CCCC1)[C@H](NC(=O)[C@@H]1[C@@H](C)[C@H]1c1cocn1)C(=O)N1CCC[C@H](N1)C(=O)OCC(C)(C)C2 (racemic) [Example A730],< 1,greater decrease in cell viability
CO[C@@H](C)c1ncc(N2CCN(C3CC3)CC2)cc1-c1c2c3cc(ccc3n1CCOC1CCOCC1)-c1csc(n1)[C@@H](N1CCOCC1)[C@H](NC(=O)[C@@H]1[C@@H](C)[C@H]1c1cocn1)C(=O)N1N[C@H](C(=O)OCC(C)(C)C2)C2CC1C2 (racemic) [Example A732],< 1,greater decrease in cell viability
CO[C@@H](C)c1ncc(N2CCN(C3CC3)CC2)cc1-c1c2c3cc(ccc3n1CCOC1CCOCC1)-c1csc(n1)[C@@H](N1CCCC1)[C@H](NC(=O)[C@H]1[C@H](C)[C@@H]1C)C(=O)N1CCC[C@H](N1)C(=O)OCC(C)(C)C2 (racemic) [Example A734],< 1,greater decrease in cell viability
CCO[C@@H]1c2nc(cs2)-c2ccc3c(c2)c(c(-c2cc(N4CCN(C5CC5)CC4)cnc2[C@H](C)OC)n3CCOC2CCOC[C@@H]2F)CC(C)(C)COC(=O)[C@@H]2CCCN(N2)C(=O)[C@H]1NC(=O)[C@H]1[C@H](C)[C@@H]1C (mixture of isomers) [Example A735],< 1,greater decrease in cell viability
CO[C@@H](C)c1ncc(N2CCN(C3CC3)CC2)cc1-c1c2c3cc(ccc3n1CCOC1CCOCC1)-c1csc(n1)[C@@H](N1CCOCC1)[C@H](NC(=O)[C@H]1CCO1)C(=O)N1CCC[C@H](N1)C(=O)OCC(C)(C)C2 (racemic) [Example A743],< 1,greater decrease in cell viability
CCO[C@@H]1c2coc(n2)-c2ccc3c(c2)c(c(-c2cc(N4CCN(C5CC5)CC4)cnc2[C@H](C)OC)n3CCOC2CCOCC2)CC(C)(C)COC(=O)[C@@H]2CCCN(N2)C(=O)[C@H]1NC(=O)[C@@H]1[C@@H](C)[C@H]1c1cocn1 (racemic) [Example A745],< 1,greater decrease in cell viability
